# From the supplement of paper PMC10849652
# Sequences of proteins named here, by UniProt entry; tags and fusion partners are left off. A change or cut given only in a name is not applied to a line headed by its entry.
# UniProt Q5JWF2, whole entry, looked up: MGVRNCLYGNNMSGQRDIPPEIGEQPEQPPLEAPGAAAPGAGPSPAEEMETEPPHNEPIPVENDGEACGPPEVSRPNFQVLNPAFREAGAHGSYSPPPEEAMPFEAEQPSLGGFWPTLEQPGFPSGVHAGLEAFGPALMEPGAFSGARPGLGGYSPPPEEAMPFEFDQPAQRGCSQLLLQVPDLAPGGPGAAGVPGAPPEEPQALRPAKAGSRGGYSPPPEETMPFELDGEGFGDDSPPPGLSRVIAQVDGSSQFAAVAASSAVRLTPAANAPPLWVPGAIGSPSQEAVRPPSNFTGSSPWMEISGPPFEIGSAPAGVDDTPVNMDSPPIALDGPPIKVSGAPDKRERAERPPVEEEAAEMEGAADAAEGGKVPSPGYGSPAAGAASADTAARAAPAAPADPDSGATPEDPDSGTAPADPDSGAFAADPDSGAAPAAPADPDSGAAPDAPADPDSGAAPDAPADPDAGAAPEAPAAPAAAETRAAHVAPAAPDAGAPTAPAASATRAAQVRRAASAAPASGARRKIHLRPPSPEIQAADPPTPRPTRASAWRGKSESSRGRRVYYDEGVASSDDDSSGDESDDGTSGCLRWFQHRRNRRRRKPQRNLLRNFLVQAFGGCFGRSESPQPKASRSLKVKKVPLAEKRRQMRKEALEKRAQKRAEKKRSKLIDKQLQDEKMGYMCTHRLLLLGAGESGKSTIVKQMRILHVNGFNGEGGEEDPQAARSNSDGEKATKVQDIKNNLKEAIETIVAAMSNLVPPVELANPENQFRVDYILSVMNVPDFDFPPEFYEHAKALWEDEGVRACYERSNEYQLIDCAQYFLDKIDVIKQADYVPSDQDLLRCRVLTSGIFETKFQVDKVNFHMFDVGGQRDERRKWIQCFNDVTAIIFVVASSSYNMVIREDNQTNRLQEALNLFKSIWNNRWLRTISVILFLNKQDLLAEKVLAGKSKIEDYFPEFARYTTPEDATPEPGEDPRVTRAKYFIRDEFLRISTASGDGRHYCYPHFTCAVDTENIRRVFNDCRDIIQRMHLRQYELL
# UniProt P00367: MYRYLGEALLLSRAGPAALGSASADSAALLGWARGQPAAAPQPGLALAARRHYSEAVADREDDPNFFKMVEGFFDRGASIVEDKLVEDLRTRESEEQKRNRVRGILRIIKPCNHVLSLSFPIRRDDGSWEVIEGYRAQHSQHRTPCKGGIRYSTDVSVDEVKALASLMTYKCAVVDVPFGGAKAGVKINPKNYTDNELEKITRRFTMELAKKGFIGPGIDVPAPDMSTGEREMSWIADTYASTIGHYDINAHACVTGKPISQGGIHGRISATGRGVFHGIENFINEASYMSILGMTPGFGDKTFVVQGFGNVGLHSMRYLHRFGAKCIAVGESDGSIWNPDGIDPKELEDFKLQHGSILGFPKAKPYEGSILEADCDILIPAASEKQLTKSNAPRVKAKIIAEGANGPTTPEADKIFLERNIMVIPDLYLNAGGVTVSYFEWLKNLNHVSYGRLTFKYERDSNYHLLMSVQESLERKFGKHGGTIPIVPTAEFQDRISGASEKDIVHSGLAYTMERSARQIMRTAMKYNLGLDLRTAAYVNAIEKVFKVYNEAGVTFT
# UniProt Q9H4A6: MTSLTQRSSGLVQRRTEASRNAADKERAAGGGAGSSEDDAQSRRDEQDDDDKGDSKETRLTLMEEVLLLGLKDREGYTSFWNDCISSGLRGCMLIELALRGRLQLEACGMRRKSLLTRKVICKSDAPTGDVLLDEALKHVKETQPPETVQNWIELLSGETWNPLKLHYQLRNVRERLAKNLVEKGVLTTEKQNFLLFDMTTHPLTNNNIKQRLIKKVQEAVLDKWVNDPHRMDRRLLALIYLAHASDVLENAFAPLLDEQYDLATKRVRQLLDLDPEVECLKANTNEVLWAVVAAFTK
# UniProt P08754, whole entry, looked up: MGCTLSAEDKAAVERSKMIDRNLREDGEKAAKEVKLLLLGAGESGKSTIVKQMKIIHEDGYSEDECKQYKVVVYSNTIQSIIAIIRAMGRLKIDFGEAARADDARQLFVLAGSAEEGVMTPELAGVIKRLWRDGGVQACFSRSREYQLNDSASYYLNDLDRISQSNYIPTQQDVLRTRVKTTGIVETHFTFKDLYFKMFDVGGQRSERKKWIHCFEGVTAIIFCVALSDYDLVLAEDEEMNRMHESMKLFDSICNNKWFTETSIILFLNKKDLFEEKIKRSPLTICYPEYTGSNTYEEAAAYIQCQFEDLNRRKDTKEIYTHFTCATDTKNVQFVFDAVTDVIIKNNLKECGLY
# UniProt P62879, whole entry, looked up: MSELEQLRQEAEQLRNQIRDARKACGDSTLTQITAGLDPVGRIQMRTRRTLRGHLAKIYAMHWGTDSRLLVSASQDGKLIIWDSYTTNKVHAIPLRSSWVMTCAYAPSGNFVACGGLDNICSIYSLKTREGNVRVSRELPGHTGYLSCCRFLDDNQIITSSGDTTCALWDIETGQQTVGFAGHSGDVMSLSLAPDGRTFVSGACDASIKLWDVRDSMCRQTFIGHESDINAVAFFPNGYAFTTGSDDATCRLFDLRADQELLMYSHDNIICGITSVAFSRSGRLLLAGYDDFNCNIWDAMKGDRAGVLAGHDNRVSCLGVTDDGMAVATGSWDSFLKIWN
# UniProt I6L899: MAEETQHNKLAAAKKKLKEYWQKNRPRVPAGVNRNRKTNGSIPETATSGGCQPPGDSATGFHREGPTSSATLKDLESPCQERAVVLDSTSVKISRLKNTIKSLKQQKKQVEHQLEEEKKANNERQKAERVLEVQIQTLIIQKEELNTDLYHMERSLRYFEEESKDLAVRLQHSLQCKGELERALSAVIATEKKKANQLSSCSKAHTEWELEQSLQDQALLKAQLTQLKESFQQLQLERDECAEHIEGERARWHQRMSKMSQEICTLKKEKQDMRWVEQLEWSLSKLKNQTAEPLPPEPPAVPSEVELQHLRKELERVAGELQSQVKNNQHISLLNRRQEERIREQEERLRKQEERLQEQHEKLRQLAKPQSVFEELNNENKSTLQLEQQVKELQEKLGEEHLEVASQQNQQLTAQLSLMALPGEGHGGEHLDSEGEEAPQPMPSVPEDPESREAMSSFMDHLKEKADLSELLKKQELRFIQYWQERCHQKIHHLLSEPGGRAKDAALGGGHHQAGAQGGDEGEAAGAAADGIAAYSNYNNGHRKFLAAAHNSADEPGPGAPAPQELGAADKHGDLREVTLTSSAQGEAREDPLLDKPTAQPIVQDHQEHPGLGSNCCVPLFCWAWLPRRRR
# UniProt Q14789: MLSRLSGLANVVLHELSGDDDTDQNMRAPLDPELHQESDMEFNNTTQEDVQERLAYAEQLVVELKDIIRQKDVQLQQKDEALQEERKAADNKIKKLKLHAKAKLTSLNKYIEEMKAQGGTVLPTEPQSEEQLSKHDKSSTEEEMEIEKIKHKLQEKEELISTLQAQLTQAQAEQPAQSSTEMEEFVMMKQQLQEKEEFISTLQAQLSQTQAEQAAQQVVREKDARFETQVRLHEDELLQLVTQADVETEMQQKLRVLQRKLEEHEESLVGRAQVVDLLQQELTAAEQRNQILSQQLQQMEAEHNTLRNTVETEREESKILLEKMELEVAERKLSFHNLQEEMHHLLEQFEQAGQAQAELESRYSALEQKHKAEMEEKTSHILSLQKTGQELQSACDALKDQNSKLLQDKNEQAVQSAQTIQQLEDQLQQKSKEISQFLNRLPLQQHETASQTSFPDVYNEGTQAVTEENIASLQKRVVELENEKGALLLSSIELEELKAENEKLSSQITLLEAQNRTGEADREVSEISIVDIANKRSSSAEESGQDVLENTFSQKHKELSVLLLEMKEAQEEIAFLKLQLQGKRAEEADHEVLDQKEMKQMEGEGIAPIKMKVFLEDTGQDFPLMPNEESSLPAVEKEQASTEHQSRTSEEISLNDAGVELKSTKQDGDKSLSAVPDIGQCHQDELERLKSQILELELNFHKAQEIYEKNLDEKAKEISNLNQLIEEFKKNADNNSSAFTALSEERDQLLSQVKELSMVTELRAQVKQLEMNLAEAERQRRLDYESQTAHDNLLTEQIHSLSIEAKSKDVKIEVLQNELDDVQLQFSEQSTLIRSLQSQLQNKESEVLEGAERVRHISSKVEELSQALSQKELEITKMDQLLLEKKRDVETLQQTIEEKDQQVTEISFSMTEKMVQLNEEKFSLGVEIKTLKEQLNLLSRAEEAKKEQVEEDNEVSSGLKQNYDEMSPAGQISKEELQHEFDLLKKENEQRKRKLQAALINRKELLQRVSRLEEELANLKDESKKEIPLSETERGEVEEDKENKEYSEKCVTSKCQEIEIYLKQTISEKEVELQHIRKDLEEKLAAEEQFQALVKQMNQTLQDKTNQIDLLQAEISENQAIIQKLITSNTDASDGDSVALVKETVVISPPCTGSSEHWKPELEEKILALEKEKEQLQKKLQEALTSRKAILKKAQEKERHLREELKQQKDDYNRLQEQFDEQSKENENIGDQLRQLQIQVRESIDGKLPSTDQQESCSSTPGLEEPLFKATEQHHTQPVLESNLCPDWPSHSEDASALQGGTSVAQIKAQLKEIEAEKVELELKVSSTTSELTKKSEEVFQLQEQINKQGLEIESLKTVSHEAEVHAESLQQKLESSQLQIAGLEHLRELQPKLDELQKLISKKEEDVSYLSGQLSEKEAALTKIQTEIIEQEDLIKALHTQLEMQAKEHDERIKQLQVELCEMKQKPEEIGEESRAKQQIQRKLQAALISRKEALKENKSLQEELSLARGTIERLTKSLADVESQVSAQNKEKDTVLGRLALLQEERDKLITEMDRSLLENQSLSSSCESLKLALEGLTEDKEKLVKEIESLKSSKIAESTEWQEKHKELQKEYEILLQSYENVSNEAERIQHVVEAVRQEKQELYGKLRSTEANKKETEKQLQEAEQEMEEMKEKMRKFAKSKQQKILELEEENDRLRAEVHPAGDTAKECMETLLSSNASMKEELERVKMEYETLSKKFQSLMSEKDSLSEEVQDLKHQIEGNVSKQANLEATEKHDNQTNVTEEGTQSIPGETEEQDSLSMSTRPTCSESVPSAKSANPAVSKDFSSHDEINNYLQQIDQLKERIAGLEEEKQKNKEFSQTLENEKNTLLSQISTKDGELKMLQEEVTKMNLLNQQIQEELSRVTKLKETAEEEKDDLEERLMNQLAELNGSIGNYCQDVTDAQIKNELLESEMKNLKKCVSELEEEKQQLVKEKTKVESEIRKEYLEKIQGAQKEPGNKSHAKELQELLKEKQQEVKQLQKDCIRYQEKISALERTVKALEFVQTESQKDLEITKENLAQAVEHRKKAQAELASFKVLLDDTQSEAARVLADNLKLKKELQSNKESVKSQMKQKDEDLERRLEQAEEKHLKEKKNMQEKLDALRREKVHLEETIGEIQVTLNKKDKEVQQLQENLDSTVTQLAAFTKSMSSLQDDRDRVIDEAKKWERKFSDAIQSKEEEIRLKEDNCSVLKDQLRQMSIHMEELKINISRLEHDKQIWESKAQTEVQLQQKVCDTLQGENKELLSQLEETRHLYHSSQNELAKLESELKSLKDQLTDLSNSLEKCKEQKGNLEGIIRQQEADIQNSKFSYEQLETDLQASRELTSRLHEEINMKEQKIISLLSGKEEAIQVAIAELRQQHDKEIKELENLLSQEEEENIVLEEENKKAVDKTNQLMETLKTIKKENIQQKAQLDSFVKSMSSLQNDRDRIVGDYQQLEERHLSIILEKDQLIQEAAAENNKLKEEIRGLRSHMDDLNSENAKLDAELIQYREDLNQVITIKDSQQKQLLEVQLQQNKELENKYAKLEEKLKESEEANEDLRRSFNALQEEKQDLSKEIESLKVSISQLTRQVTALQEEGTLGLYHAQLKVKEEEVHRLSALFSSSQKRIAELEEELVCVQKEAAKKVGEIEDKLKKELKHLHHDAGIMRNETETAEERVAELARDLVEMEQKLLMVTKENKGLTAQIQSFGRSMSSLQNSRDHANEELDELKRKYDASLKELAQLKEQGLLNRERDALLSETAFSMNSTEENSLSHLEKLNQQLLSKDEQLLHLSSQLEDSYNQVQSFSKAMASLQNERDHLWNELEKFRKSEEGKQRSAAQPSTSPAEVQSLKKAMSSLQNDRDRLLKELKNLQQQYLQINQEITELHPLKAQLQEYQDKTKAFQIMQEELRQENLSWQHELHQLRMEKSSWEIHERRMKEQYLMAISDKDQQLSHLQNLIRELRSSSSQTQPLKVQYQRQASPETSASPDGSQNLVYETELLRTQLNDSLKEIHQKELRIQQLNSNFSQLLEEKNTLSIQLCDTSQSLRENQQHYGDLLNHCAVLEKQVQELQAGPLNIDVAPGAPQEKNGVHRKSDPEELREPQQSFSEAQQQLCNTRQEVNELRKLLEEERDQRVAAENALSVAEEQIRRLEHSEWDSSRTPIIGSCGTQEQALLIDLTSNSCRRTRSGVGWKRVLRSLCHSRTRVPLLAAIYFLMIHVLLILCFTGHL
# The other results are listed elsewhere or left out. Residues, ends and D or L forms follow the SMILES beside them. *: point of attachment. Cbz = O=C(OCc1ccccc1)*
# Key:
# Assay in all cases: log2 fold change, soluble protein after heating vs DMSO (PISA); higher = thermal stabilisation; K562 cells, 10 uM, 30 min; active = over 0.2 and 3.5 SD of the protein, either way, in both replicates (recomputed)
# IRAK-1-4 Inhibitor I = compound: C1COCCN1CCN2C3=CC=CC=C3N=C2NC(=O)C4=CC(=CC=C4)[N+](=O)[O-] [IRAK-1-4 Inhibitor I]
# How it was run: (§1)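 Values are thermal stability changes relative to control samples and are taken from duplicates. They are stated as log2 fold changes. Before quantification by TMTpro 16plex LC-MS/MS with equalised channel sums, K562 cells at 2×10^6 cells/mL were treated with 10 μM compound for 30 min, heated in aliquots for 3 min across 48°C-58°C, pooled, extracted in PBS with 0.5% NP-40 at 4°C, and centrifuged at 21,000xg for 90 min to give the soluble supernatant.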
# ibrutinib = compound: C=CC(=O)N1CCC[C@@H](n2nc(-c3ccc(Oc4ccccc4)cc3)c3c(N)ncnc32)C1 [ibrutinib]
# How it was run: as §1
# ralimetinib = compound: CC(C)(C)Cn1c(N)nc2ccc(-c3[nH]c(C(C)(C)C)nc3-c3ccc(F)cc3)nc21 [ralimetinib]
# How it was run: as §1
# [1] = compound: CC(C)C1=C2N=C(C=C(N2N=C1)NCC3=CC=CC=C3)NCCCCCCN
# How it was run: as §1
# [2] = compound: CC(C)C[C@@H](C=O)NC(=O)[C@H](CC(C)C)NC(=O)[C@H](CC(C)C)NC(=O)OCc1ccccc1
# How it was run: as §1
# pinometostat = compound: CC(C)N(C[C@H]1O[C@@H](n2cnc3c(N)ncnc32)[C@H](O)[C@@H]1O)[C@H]1C[C@@H](CCc2nc3cc(C(C)(C)C)ccc3[nH]2)C1 [pinometostat]
# How it was run: as §1
# [3] = compound: CC1=C(C(CC(=O)N1)C2=CC=C(C=C2)C(F)(F)F)C(=O)NC3=C(C=C4C(=C3)C=NN4)F
# How it was run: as §1
# [4] = compound: CC1=C(C=C(C=C1)NC(=O)C2=CC(=CC=C2)N(C)C)NC(=O)C3=CC=C(C=C3)O
# How it was run: as §1
# [5] = compound: CC1=NC(=CC=C1)C2=C(N=C(N2)C(C)(C)C)C3=CC4=NC=CN=C4C=C3
# How it was run: as §1
# [6] = compound: CCCc1cc(C)[nH]c(=O)c1CNC(=O)c1cc(-c2ccnc(N3CCN(C)CC3)c2)cc2c1cnn2C(C)C
# How it was run: as §1
# givinostat = compound: CCN(CC)Cc1ccc2cc(COC(=O)Nc3ccc(C(=O)NO)cc3)ccc2c1 [givinostat]
# How it was run: as §1
# barasertib = compound: CCN(CCCOc1ccc2c(Nc3cc(CC(=O)Nc4cccc(F)c4)[nH]n3)ncnc2c1)CCOP(=O)(O)O [barasertib]
# How it was run: as §1
# [7] = compound: CC(=O)c1cnc2ccc(-c3cc(Cl)c(O)c(Cl)c3)nc2c1N[C@H]1CC[C@H](CN(C)C)CC1
# How it was run: as §1
# [8] = compound: CC(C)(O)CC(=O)NCCn1ccc2ncnc(Nc3ccc(Oc4cccc(C(F)(F)F)c4)c(Cl)c3)c21
# How it was run: as §1
# [9] = compound: CC1=C(C2=C(C=C1)C(=O)C3=CC=CC=C3N2CCCN)C
# How it was run: as §1
# [10] = compound: CC1=C(C=C(C=C1)NC(=O)C2=CC(=CC=C2)C(C)(C)C#N)NC3=CC4=C(C=C3)N=CN(C4=O)C
# How it was run: as §1
# [11] = compound: CC1=CC=C(C=C1)SC2=C3C=C(SC3=CN=C2)C(=O)N
# How it was run: as §1
# Nexturastat A = compound: CCCCN(Cc1ccc(C(=O)NO)cc1)C(=O)Nc1ccccc1 [Nexturastat A]
# How it was run: as §1
# vemurafenib = compound: CCCS(=O)(=O)Nc1ccc(F)c(C(=O)c2c[nH]c3ncc(-c4ccc(Cl)cc4)cc23)c1F [vemurafenib]
# How it was run: as §1
# [12] = compound: CCCS(=O)(=O)Nc1ccc(F)c(C(=O)c2c[nH]c3ncc(Cl)cc23)c1F
# How it was run: as §1
Target,log2 fold change (IRAK-1-4 Inhibitor I),log2 fold change (ibrutinib),log2 fold change (ralimetinib),log2 fold change [1],log2 fold change [2],log2 fold change (pinometostat),log2 fold change [3],log2 fold change [4],log2 fold change [5],log2 fold change [6],log2 fold change (givinostat),log2 fold change (barasertib),log2 fold change [7],log2 fold change [8],log2 fold change [9],log2 fold change [10],log2 fold change [11],log2 fold change (Nexturastat A),log2 fold change (vemurafenib),log2 fold change [12]
GPS1 (UniProt A8K070),inactive: 0.007,inactive: 0.007,inactive: -0.039,inactive: 0.014,inactive: 0.132,inactive: -0.037,inactive: -0.026,inactive: 0.013,inactive: -0.339,inactive: -0.095,inactive: -0.032,inactive: -0.014,–,–,–,–,–,–,–,–
GLUL (UniProt P15104),inactive: 0.054,inactive: 0.009,inactive: -0.02,inactive: 0.058,inactive: -0.013,inactive: -0.021,–,inactive: -0.003,inactive: -0.013,inactive: -0.016,inactive: -0.082,inactive: 0.004,inactive: -0.049,inactive: 0.018,inactive: -0.058,inactive: -0.008,inactive: 0.055,inactive: -0.02,inactive: -0.04,inactive: -0.084
GNAS (UniProt Q5JWF2),inactive: -0.04,inactive: 0.001,inactive: 0.009,inactive: 0.041,inactive: -0.009,inactive: 0,–,inactive: -0.043,inactive: -0.027,inactive: 0.067,inactive: -0.036,inactive: -0.011,inactive: -0.059,inactive: 0.022,inactive: 0.073,inactive: 0.105,inactive: -0.014,inactive: -0.01,inactive: 0.034,inactive: -0.027
GLUD1 (UniProt P00367),inactive: 0.02,inactive: 0.04,inactive: 0.023,inactive: -0.049,inactive: 0.012,inactive: 0.023,–,inactive: -0.007,inactive: -0.011,inactive: 0.136,inactive: -0.062,inactive: -0.007,inactive: 0.068,inactive: -0.038,inactive: 0.125,inactive: 0.179,inactive: -0.054,inactive: -0.063,inactive: -0.012,inactive: -0.02
GPATCH4 isoform 3 (UniProt Q5T3I0),inactive: -0.179,inactive: 0.016,inactive: 0.04,–,inactive: 0.211,inactive: 0.242,–,inactive: -0.245,inactive: -0.214,–,–,inactive: -0.136,–,inactive: 0.093,inactive: -0.036,–,inactive: -0.038,inactive: 0.392,inactive: -0.213,inactive: 0.013
GOLGA7B (UniProt Q2TAP0),inactive: -0.022,inactive: -0.004,inactive: -0.108,inactive: -0.079,inactive: 0.075,inactive: 0.032,inactive: 0.015,inactive: -0.1,inactive: -0.061,inactive: -0.055,inactive: -0.028,inactive: -0.201,inactive: -0.093,–,inactive: 0.048,inactive: -0.017,inactive: 0.049,–,inactive: -0.058,inactive: 0.028
GPN2 (UniProt Q9H9Y4),inactive: -0.018,inactive: -0.021,inactive: -0.042,inactive: 0.026,inactive: 0.033,inactive: -0.007,inactive: 0.052,inactive: -0.028,inactive: -0.02,inactive: -0.114,inactive: -0.037,inactive: -0.001,inactive: -0.05,–,inactive: 0.021,inactive: -0.074,inactive: 0.009,–,inactive: -0.032,inactive: -0.047
GOLPH3 (UniProt Q9H4A6),inactive: 0.033,inactive: -0.035,inactive: -0.005,active: 0.31,inactive: -0.005,inactive: -0.013,–,inactive: -0.031,inactive: 0.022,inactive: -0.011,inactive: -0.007,inactive: 0.023,inactive: -0.023,inactive: -0.031,inactive: -0.028,inactive: 0.074,inactive: -0.017,inactive: -0.017,inactive: 0.015,inactive: 0.058
GNAI3 (UniProt P08754),inactive: -0.007,inactive: 0.083,inactive: 0.066,inactive: 0.006,inactive: -0.03,inactive: 0.024,–,inactive: -0.012,inactive: -0.021,inactive: 0.069,active: -0.263,inactive: 0,inactive: 0.027,inactive: 0.083,inactive: 0.038,inactive: 0.125,inactive: -0.07,inactive: 0.072,inactive: 0.037,inactive: -0.025
GLRX3 (UniProt O76003),inactive: -0.03,inactive: -0.015,inactive: 0.002,inactive: -0.024,inactive: -0.033,inactive: -0.033,–,inactive: -0.033,inactive: 0.028,inactive: 0.014,inactive: 0.01,inactive: 0.054,inactive: 0.02,inactive: -0.027,inactive: -0.025,inactive: 0.007,inactive: 0.02,inactive: -0.049,inactive: 0.024,inactive: 0.139
GPX4 (UniProt P36969),inactive: -0.026,inactive: 0.065,inactive: 0.01,inactive: 0.099,active: -0.462,inactive: -0.078,–,inactive: -0.068,inactive: 0.06,inactive: -0.027,active: -0.451,inactive: -0.012,inactive: -0.005,inactive: 0.003,inactive: 0.02,inactive: -0.005,inactive: 0.095,inactive: -0.151,inactive: -0.019,inactive: 0.005
GNB2 (UniProt P62879),inactive: -0.021,inactive: 0.003,inactive: 0.016,inactive: 0.022,inactive: -0.025,inactive: 0.016,–,inactive: 0.018,inactive: -0.018,inactive: 0.012,inactive: -0.019,inactive: -0.042,inactive: -0.013,inactive: 0.013,inactive: 0.076,inactive: 0.11,inactive: -0.053,inactive: -0.023,inactive: 0.044,inactive: 0.036
GOLGA8R (UniProt I6L899),inactive: 0.003,inactive: 0.04,inactive: 0.247,inactive: 0.227,inactive: 0.177,inactive: 0.035,–,inactive: -0.037,inactive: -0.205,–,inactive: 0.223,inactive: 0.048,inactive: -0.106,–,inactive: 0.201,–,inactive: 0.041,–,inactive: 0.06,inactive: -0.086
GNA12 (UniProt Q03113),inactive: -0.066,inactive: -0.118,–,inactive: -0.107,–,inactive: 0.101,inactive: 0.192,–,inactive: -0.132,inactive: -0.267,inactive: 0.06,inactive: 0,inactive: -0.042,inactive: -0.031,inactive: 0.147,inactive: -0.056,inactive: -0.043,inactive: -0.255,inactive: -0.101,inactive: -0.197
GOPC (UniProt Q9HD26),inactive: -0.119,inactive: -0.104,inactive: 0.259,inactive: 0.046,inactive: 0.083,inactive: 0.174,–,inactive: 0.018,inactive: -0.066,inactive: 0.244,inactive: 0.152,inactive: -0.116,inactive: 0.03,inactive: -0.04,inactive: 0.085,inactive: 0.207,inactive: -0.051,inactive: 0.131,inactive: 0.094,inactive: -0.128
GOLGB1 isoform 2 (UniProt Q14789),inactive: -0.023,inactive: -0.032,inactive: 0.045,inactive: 0.065,inactive: 0.082,inactive: 0.102,–,inactive: -0.057,inactive: -0.033,inactive: -0.047,inactive: 0,inactive: -0.07,inactive: 0.031,inactive: 0.05,inactive: -0.051,inactive: 0.033,inactive: -0.09,inactive: 0.177,inactive: -0.085,inactive: -0.07
